Values from PubChem BioAssay AID1259254 (NCATS, 2017).

Screen: 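Gene knock-downs that lead to re-replication, shown by excess G2 DNA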 (primary screen)
Cells: human HCT116 colorectal cancer cells
Knock-down reagent: single siRNA against human genes
Duration: 3 days
Measurement: 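Nuclei stained with Hoechst and imaged; cell-cycle phase assigned by DNA content; G2 share scaled per plate, non-targeting siRNA 0%, GMNN siRNA 100%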
Scale: G2 robust z-score and G2 cells, % of GMNN control: higher = more G2 cells, more excess DNA replication
Hit rule: 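An siRNA counts as active if its G2 robust z-score lies at least 5 MADs above the screen median; here such calls match roughly 38% of GMNN control or more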
This is an unselected part of about 59,000 reagents tested. About 1,550 of them (2.6%) count as active. 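G2 share is only a proxy for re-replication; each gene was hit by three separate siRNAs, and active genes were retested.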 Unmarked entries are inactive. The numbers tell different reagents against one gene apart. Further read-outs or replicates are left out here. Not given: the amount of reagent.

Knock-down of SCN8A #1 came out at: G2 robust z-score 1.81; G2 cells, % of GMNN control 15.7. After knock-down of SCN8A #2, the record shows G2 robust z-score -1.12; G2 cells, % of GMNN control -4.88. Knock-down of SCN8A #3 gave: G2 robust z-score 0.781; G2 cells, % of GMNN control 8.46. Silencing of GFY #1 gave: G2 robust z-score -0.324; G2 cells, % of GMNN control 0.686. For GFY #2, the entry reads G2 robust z-score 0.322; G2 cells, % of GMNN control 5.23. GFY #3 showed G2 robust z-score 1.72; G2 cells, % of GMNN control 15.1.

For RABAC1 #1 the deposit lists G2 robust z-score -1.05; G2 cells, % of GMNN control -4.42. RABAC1 #2 showed G2 robust z-score -0.753; G2 cells, % of GMNN control -2.33. RABAC1 #3 scored G2 robust z-score -0.365; G2 cells, % of GMNN control 0.399. TFDP1P2 #1 gave G2 robust z-score -0.669; G2 cells, % of GMNN control -1.74. TFDP1P2 #2 gave G2 robust z-score 0.773; G2 cells, % of GMNN control 8.41. Depletion of TFDP1P2 #3 resulted in: G2 robust z-score 3.61; G2 cells, % of GMNN control 28.4.

After knock-down of SPAG5 #1, the screen gave G2 robust z-score -0.446; G2 cells, % of GMNN control -0.17. For SPAG5 #2 the deposit lists G2 robust z-score -0.347; G2 cells, % of GMNN control 0.529. Knock-down of SPAG5 #3 resulted in: G2 robust z-score -0.197; G2 cells, % of GMNN control 1.58.

A run of entries taken from the entries so far:
SCN8A #3: G2 robust z-score = 0.781; G2 cells, % of GMNN control = 8.46
GFY #1: G2 robust z-score = -0.324; G2 cells, % of GMNN control = 0.686
GFY #2: G2 robust z-score = 0.322; G2 cells, % of GMNN control = 5.23

Next records follow:
For FGD1 #1, the entry reads G2 robust z-score -0.926; G2 cells, % of GMNN control -3.55. After knock-down of FGD1 #2, the screen gave G2 robust z-score -0.0913; G2 cells, % of GMNN control 2.33. Against FGD1 #3, the values are G2 robust z-score 6.62 (active); G2 cells, % of GMNN control 49.5. Silencing of PAGE4 #1 came out at: G2 robust z-score -0.0624; G2 cells, % of GMNN control 2.53. Against PAGE4 #2 the deposit lists G2 robust z-score 2.06; G2 cells, % of GMNN control 17.5. For PAGE4 #3, the entry reads G2 robust z-score 0.174; G2 cells, % of GMNN control 4.19.

With knock-down of GDAP1 #1, the screen gave G2 robust z-score -0.388; G2 cells, % of GMNN control 0.238. Against GDAP1 #2 the deposit lists G2 robust z-score -0.081; G2 cells, % of GMNN control 2.4. For GDAP1 #3, the entry reads G2 robust z-score 0.512; G2 cells, % of GMNN control 6.57. Knock-down of GPER1 #1 came out at: G2 robust z-score -1.25; G2 cells, % of GMNN control -5.85. GPER1 #2 showed G2 robust z-score 1.39; G2 cells, % of GMNN control 12.8. For GPER1 #3 the deposit lists G2 robust z-score 1.06; G2 cells, % of GMNN control 10.4.

Depletion of FABP3 #1 resulted in: G2 robust z-score 1.38; G2 cells, % of GMNN control 12.6. After knock-down of FABP3 #2 the results were G2 robust z-score 1.71; G2 cells, % of GMNN control 15. Against FABP3 #3, the entry reads G2 robust z-score -0.347; G2 cells, % of GMNN control 0.528.
